This note sets out measurements from patent publication US7026134B2 (priority 2001, dated 2006).

For data set [1], the system named is IgG fraction of the antiserum raised to immunogen A (hapten A-BSA). Format: binding, sheep. To be noted: absorbance at 450 nm. As for the experimental part: Aqueous solutions of the immunogens prepared in Examples 7 and 8 were formulated with Freund's Complete Adjuvant (FCA) to form emulsions consisting of 4 mg/ml immunogen A and 2 mg/ml immunogen B in 50% (v/v) FCA. Three sheep were immunized with each emulsion (1° immunizations), 0.25 ml being subcutaneously injected at each of four sites in the flank of each animal. The next immunizations (first boosts) contained 2 mg/ml immunogen A and 1 mg/ml immunogen B. Subsequent immunizations (boosts […]) contained 1 mg/ml of each immunogen. All boosts were emulsified in 50% (v/v) Freund's Incomplete Adjuvant (FIA) and administered to the appropriate sheep in the same manner as the 1° immunizations, at monthly intervals for 1 year. Blood sampling took place 7 to 14 days after each boost. Each sample was processed to produce antiserum which was further purified by caprylic acid and ammonium sulfate precipitation to yield an immunoglobulin G (IgG) fraction. The IgG fraction was evaluated by competitive ELISA microtiter plate assay, as described in Example 12 below.
(a) The wells of an enhanced binding 96-well polystyrene microtiter plate were coated with the IgG fraction of the antiserum raised to immunogen A (hapten A-BSA) (Example 7), diluted in 10 mM Tris, pH8.5 (125 μl/well). The appropriate antibody coating dilution was determined using standard ELISA chequerboard techniques. The plate was incubated for 2 hours at 37° C., washed 4 times with Tris-buffered saline containing Tween 20 (TBST) and tapped dry. […] 75 μl of conjugate A (hapten A-HRP) (Example 10), diluted in Tris buffer containing EDTA, D-mannitol, sucrose, thimerosal and BSA, was added to each of the wells. The appropriate dilution of conjugate was also determined using standard ELISA chequerboard techniques. The plate was incubated at 37° C. for 2 hours. The excess unbound conjugate was removed by washing 6 times over a 10 minute period with TBST. 125 μl of tetramethylbenzedine (TMB) substrate solution was added to each well of the plate that was then incubated for 15 to 20 minutes in the dark at room temperature. The reaction was terminated by addition of 125 μl 0.2M H2SO4 to each well. The absorbance was then measured at 450 nm using a microtiter plate reader.

For data set [2], the system named is IgG fraction of the antiserum raised to immunogen B (hapten B-BSA). It is filed as binding, sheep. The note with it: absorbance at 450 nm.
[3] abbreviates: standard concentration 0.5 ng/ml.
Setting [4] is: standard concentration 25 ng/ml.
[5] abbreviates: standard concentration 250 ng/ml.
The mark [6] stands for this setting: standard concentration 500 ng/ml.
The mark [7] stands for this setting: standard concentration 10 ng/ml.
The mark [8] stands for this setting: standard concentration 50 ng/ml.
[9] abbreviates: standard concentration 100 ng/ml.
Where [10] appears, read: standard concentration 1000 ng/ml.
[11] abbreviates: standard concentration 2000 ng/ml.

Like-named read-outs stand apart in the source and are kept apart here.

`COc1ccc2c3c1O[C@H]1C(=O)CC[C@@]4(O)[C@@H](C2)N(C)CC[C@]314` [Oxycodone]: the A450 in data set [1] (setting [3]) amounted to 2.185; in data set [1] (standard concentration 1 ng/ml) it was 2.028; in data set [1] (standard concentration 5 ng/ml), 1.464; in data set [1] (setting [4]) it was 0.891; in data set [1] (setting [5]), 0.366; in data set [1] (setting [6]), 0.249. In addition, the A450 in data set [2] (setting [7]) worked out at 1.679; in data set [2] (setting [8]), 1.111; in data set [2] (setting [9]), 0.928; in data set [2] (setting [5]) it was 0.578; in data set [2] (setting [6]), 0.394; in data set [2] (setting [10]), 0.271. The A450 in data set [2] (setting [11]) is reported as 0.185.

Turning to `CN1CC[C@]23c4c5ccc(O)c4O[C@H]2C(=O)CC[C@@]3(O)[C@H]1C5` [Oxymorphone], the A450 in data set [1] (setting [3]) is 2.162; in data set [1] (standard concentration 1 ng/ml) it was 2.103; in data set [1] (standard concentration 5 ng/ml), 1.747; in data set [1] (setting [4]), 1.328; in data set [1] (setting [9]) it was 0.912; in data set [1] (setting [5]), 0.679. In addition, the A450 in data set [1] (setting [6]) came out at 0.567; in data set [2] (setting [7]), 2.421; in data set [2] (setting [8]) it was 2.270; in data set [2] (setting [9]), 2.216; in data set [2] (setting [5]), 2.181; in data set [2] (setting [6]), 2.101. Further, the figures for the A450 in data set [2] (setting [10]) and in data set [2] (setting [11]) were 1.964 and 1.788, respectively.

As to `COc1ccc2c3c1O[C@H]1C(=O)CC[C@@]4(O)[C@@H](C2)NCC[C@]314` [Noroxycodone], the A450 was determined as 2.290 in data set [1] (setting [3]); 2.312 in data set [1] (standard concentration 1 ng/ml); 2.314 in data set [1] (standard concentration 5 ng/ml); 2.292 in data set [1] (setting [4]); 2.254 in data set [1] (setting [9]); 2.217 in data set [1] (setting [5]). In addition, the A450 is 2.141 in data set [1] (setting [6]); 2.187 in data set [2] (setting [7]); 1.709 in data set [2] (setting [8]); 1.569 in data set [2] (setting [9]); 1.254 in data set [2] (setting [5]); 1.053 in data set [2] (setting [6]). For the same compound, the figures for the A450 in data set [2] (setting [10]) and in data set [2] (setting [11]) were 0.785 and 0.588, respectively.
